Measured values as given in patent US20090324600A1 (PIERRE FABRE MEDICAMENT, published 2009).
These are yes or no findings as the source states them, for the method shown. Some entries that bind do so weakly or less than the wild type.

Assays:
human CD151 (human) [1] = biological target: T1, human CD151 (human) (UniProt P48509); assay: Western blot (FIG. 8)
T1 sequence (looked up): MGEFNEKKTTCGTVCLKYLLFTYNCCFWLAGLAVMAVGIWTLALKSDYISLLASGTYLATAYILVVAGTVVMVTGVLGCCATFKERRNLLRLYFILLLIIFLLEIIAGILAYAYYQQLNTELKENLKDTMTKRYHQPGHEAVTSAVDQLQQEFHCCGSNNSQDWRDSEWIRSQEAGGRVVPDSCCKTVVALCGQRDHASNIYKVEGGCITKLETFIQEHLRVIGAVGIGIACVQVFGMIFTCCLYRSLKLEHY

human CD151 (human) [2] = biological target: T1, human CD151 (human); assay: Western blot of HT-29 cell lysate and human lung, pancreas and colon tissue lysates, non-reductive conditions
human CD151 (human) [3] = biological target: T1, human CD151 (human); assay: immunoprecipitation from a Brij 97 lysate of HeLa cells

Measured: binding

B1: TS151r antibody (antibody, mouse IgG1, V domains shown)
VH: QVQLQQPGSVVVRPGASVKLSCKASGYTFTSSWMHWAKQRPGQGLEWIGQIHPNSGNTNYNEKFKVKATLTIDTSSSTAYVDLNSLTSGDSAVYYCARGDDAYYSGLYAMDYWGQGTSVTVSS
VL: DIVLTQSPASLAVSLGQRATISCRASQSVSTSRYSYMHWYQQIQGQPPKLLIKYASNLESGVPARFSGSGSGTDFTLNIHPVEEEDTATYHCQHSWEIPYTFGGGTTLEIK
notes: Murine monoclonal from a hybridoma
binds: human CD151 (human) [1] | human CD151 (human) [2] | human CD151 (human) [3]
